PubChem BioAssay AID1259424 – University of Nebraska Medical Center, 2018
This is an unselected part of about 14,000 deposited reagents. 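Higher correlation or smaller distance means closer resemblance to KSR1 loss; control wells, including KSR1 knockdowns, recur on many plates.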 Further read-outs or replicates are left out here. The record does not give: the time to read-out.

- Screen: 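Rank knockdowns across the genome by resemblance to the KSR1 depletion profile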 (primary screen)
- Cell system: human HCT116 colon cancer cells
- Reagents: siRNA pool against human genes, 50 nM
- Detection: 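Six signature mRNAs by branched-DNA multiplex assay, scaled to two housekeeping genes and non-targeting median, log2; matched to mean KSR1 knockdown profile by Pearson correlation and euclidean distance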
- Scale: mean correlation with KSR1 profile: higher = expression change more like KSR1 knockdown

{"gene symbol":"DDX49 (DEAD-box helicase 49)","mean correlation with KSR1 profile":-0.249}
{"gene symbol":"FAM13A (family with sequence similarity 13 member A)","mean correlation with KSR1 profile":-0.00875}
{"gene symbol":"TSHZ1 (teashirt zinc finger homeobox 1)","mean correlation with KSR1 profile":0.168}
{"gene symbol":"THOC7 (THO complex subunit 7)","mean correlation with KSR1 profile":0.245}
{"gene symbol":"UNC13A (unc-13 homolog A)","mean correlation with KSR1 profile":-0.172}
{"gene symbol":"PTGDR2 (prostaglandin D2 receptor 2)","mean correlation with KSR1 profile":0.0768}
{"gene symbol":"AMY1A (amylase alpha 1A)","mean correlation with KSR1 profile":-0.0374}
{"gene symbol":"STK40 (serine/threonine kinase 40)","mean correlation with KSR1 profile":-0.0642}
{"gene symbol":"HOXB13 (homeobox B13)","mean correlation with KSR1 profile":0.722}
{"gene symbol":"FLT4 (fms related receptor tyrosine kinase 4)","mean correlation with KSR1 profile":0.282}
{"gene symbol":"HSAJ2425 (retired record)","mean correlation with KSR1 profile":0.242}
{"gene symbol":"CCDC198 (coiled-coil domain containing 198)","mean correlation with KSR1 profile":0.713}
{"gene symbol":"IMPDH1 (inosine monophosphate dehydrogenase 1)","mean correlation with KSR1 profile":-0.351}
{"gene symbol":"NDUFB6 (NADH:ubiquinone oxidoreductase subunit B6)","mean correlation with KSR1 profile":-0.575}
{"gene symbol":"KAT6A (lysine acetyltransferase 6A)","mean correlation with KSR1 profile":0.367}
{"gene symbol":"ZNF702P (zinc finger protein 702, pseudogene)","mean correlation with KSR1 profile":0.842}
{"gene symbol":"DUSP8 (dual specificity phosphatase 8)","mean correlation with KSR1 profile":-0.122}
{"gene symbol":"EPM2AIP1 (EPM2A interacting protein 1)","mean correlation with KSR1 profile":-0.244}
{"gene symbol":"LRP4 (LDL receptor related protein 4)","mean correlation with KSR1 profile":0.46}
{"gene symbol":"RING1 (ring finger protein 1)","mean correlation with KSR1 profile":-0.223}
{"gene symbol":"IPO5 (importin 5)","mean correlation with KSR1 profile":-0.297}
{"gene symbol":"RNPEP (arginyl aminopeptidase)","mean correlation with KSR1 profile":0.488}
{"gene symbol":"EIF4H (eukaryotic translation initiation factor 4H)","mean correlation with KSR1 profile":-0.185}
{"gene symbol":"TSHR (thyroid stimulating hormone receptor)","mean correlation with KSR1 profile":0.192}
{"gene symbol":"JPH4 (junctophilin 4)","mean correlation with KSR1 profile":0.483}
{"gene symbol":"GPD1 (glycerol-3-phosphate dehydrogenase 1)","mean correlation with KSR1 profile":-0.558}
{"gene symbol":"SLC2A1","mean correlation with KSR1 profile":-0.543}
{"gene symbol":"OSBPL2 (oxysterol binding protein like 2)","mean correlation with KSR1 profile":0.221}
{"gene symbol":"PRMT1 (protein arginine methyltransferase 1)","mean correlation with KSR1 profile":-0.185}
{"gene symbol":"PRKN (parkin RBR E3 ubiquitin protein ligase)","mean correlation with KSR1 profile":-0.468}
{"gene symbol":"PRDM2 (PR/SET domain 2)","mean correlation with KSR1 profile":0.209}
{"gene symbol":"PPP6C (protein phosphatase 6 catalytic subunit)","mean correlation with KSR1 profile":-0.42}
{"gene symbol":"PLCH1 (phospholipase C eta 1)","mean correlation with KSR1 profile":0.496}
{"gene symbol":"RPA2 (replication protein A2)","mean correlation with KSR1 profile":-0.649}
{"gene symbol":"RAB11FIP4 (RAB11 family interacting protein 4)","mean correlation with KSR1 profile":0.0693}
{"gene symbol":"LDOC1 (LDOC1 regulator of NFKB signaling)","mean correlation with KSR1 profile":0.0652}
